This note sets out measurements from article PMC9226187, “Probing TDP-43 condensation using an in silico designed aptamer”.

For part of these data: No signal at the amounts used counts as a negative. For part of these data: At least one verdict was read from the data and is not stated in words by the source. For part of these data: Construct, isoform or probe ends are uncertain for at least one entry. For part of these data: The direction of at least one scale is not stated here.

The target of one data set is TDP-43 RRM1-2 aggregates (UniProt Q13148). Put plainly: single-molecule PAINT (TIRF). Conditions: recombinant protein, residues 102-269, protein details: His6-SUMO tag cleaved (TEV).
Data set [1] addresses alpha-synuclein aggregates (UniProt P37840). Put plainly: single-molecule PAINT (TIRF). The conditions noted are these: no substantial binding, recombinant protein.
A further data set concerns the target Abeta42 aggregates (UniProt P05067). Put plainly: single-molecule PAINT (TIRF). The conditions noted are these: no substantial binding, recombinant protein.
In the next data set the target is Abeta42 (UniProt P05067). Put plainly: BLI. Conditions: BLI: 10 mM potassium phosphate pH 7.2, 150 mM KCl, 0.01% Tween20, 25 °C, biotin-RNA on streptavidin sensors, protein 20 nM-20 µM, PAINT in PBS, recombinant protein.
The target in another data set is alpha-synuclein (UniProt P37840). Put plainly: BLI. Conditions: BLI: 10 mM potassium phosphate pH 7.2, 150 mM KCl, 0.01% Tween20, 25 °C, biotin-RNA on streptavidin sensors, protein 20 nM-20 µM, PAINT in PBS, recombinant protein.
Another data set has as its target TDP-43 RRM2 (UniProt Q13148). Put plainly: BLI. The conditions noted are these: BLI: 10 mM potassium phosphate pH 7.2, 150 mM KCl, 0.01% Tween20, 25 °C; biotin-RNA on streptavidin sensors, protein 20 nM-20 µM; PAINT in PBS; recombinant protein; residues 191-269; protein details: His6-SUMO tag cleaved (TEV); label: 3' biotin.
For another data set, the target named is TDP-43 RRM1 (UniProt Q13148). Put plainly: BLI. The conditions noted are these: BLI: 10 mM potassium phosphate pH 7.2, 150 mM KCl, 0.01% Tween20, 25 °C; biotin-RNA on streptavidin sensors, protein 20 nM-20 µM; PAINT in PBS; recombinant protein; residues 102-191; protein details: His6-SUMO tag cleaved (TEV); label: 3' biotin.
[2] abbreviates: label: ATTO590 (5' in cell version).

For CGGUGUUGCU [Apt-1_ATTO590], the binding result in the data set with TDP-43 RRM1-2 aggregates (1 nM aptamer, PBS, label: 3' ATTO590) was “binds”; in data set [1] (label: 3' ATTO590), “no binding”; with Abeta42 aggregates (label: 3' ATTO590), “no binding”.

As usually defined, the Kd is the constant that tells how readily two partners part at equilibrium. On to CGGUGUUGCU [Apt-1], for which the results for the Kd with Abeta42 (label: 3' biotin), in the data set with alpha-synuclein (label: 3' biotin) and in the data set with TDP-43 RRM1 were greater than 10 µM, greater than 10 µM and 0.58 µM, respectively. Also, the binding result in the data set with TDP-43 RRM2 is “no binding”.

As to AGCAACACCG [nApt-1_ATTO590], the binding signal (fraction of aggregates detected vs Apt-1) with TDP-43 RRM1-2 aggregates (setting [2]) was 0.2. The binding result (in data set [1] (setting [2]); with Abeta42 aggregates (setting [2])) was “no binding” in each case.

As to AGCAACACCG [nApt-1], the Kd with Abeta42 (label: 5' biotin) and with alpha-synuclein (label: 5' biotin) was greater than 10 µM in each case.
